Results as given in paper PMC6824563.

Assays:
[1] = biological target: HA::CEH-60(ΔPBC)::VC155 (CEH-60 with truncated PBC domain) (C. elegans); assay: co-IP; anti-HA agarose beads with lysate of the heat-shock inducible BiFC strains (at least 4 mg worm protein), 4°C overnight; lysis buffer 25 mM Tris-HCl pH 7.5, 100 mM NaCl, 1 mM EDTA, 0.5% NP-40; western blot with anti-HA and anti-MYC
[2] = biological target: HA::CEH-60(ΔPBC)::VC155 (CEH-60 with truncated PBC domain) (C. elegans); assay: split reporter; BiFC with Venus halves (VN173 on UNC-62, VC155 on the partner) under the heat-shock promoter hsp-16.41p in living day 1 adult C. elegans; heat shock 2 hours at 33°C, imaged 5-6 hours later; fluorescence quantified in 6 intestinal nuclei per animal

binding [1]: no binding
binding [2]: no binding
B1: MYC::UNC-62::VN173 (UNC-62, uncoordinated 62, MEIS-class transcription factor) (protein, UniProt Q9N5D6 1-564)
chain: MSGDSKVWAHASADTWAVQNGISTYDLDTSSIKREKRDHNEQFNDGYGPPPGSASADPASYIADPAAFYNLYTNMGGAPTSTPMMHHEMGEAMKRDKESIYAHPLYPLLVLLFEKCELATSTPRDTSRDGSTSSDVCSSASFKDDLNEFVRHTQENADKQYYVPNPQLDQIMLQSIQMLRFHLLELEKVHELCDNFCNRYVVCLKGKMPLDIVGDERASSSQPPMSPGSMGHLGHSSSPSMAGGATPMHYPPPYEPQSVPLPENAGVMGGHPMEGSSMAYSMAGMAAAAASSSSSSNQAGDHPLANGGTLHSTAGASQTLLPIAVSSPSTCSSGGLRQDSTPLSGETPMGHANGNSMDSISEAGDEFSVCGSNDDGRDSVLSDSANGSQNGKRKVPKVFSKEAITKFRAWLFHNLTHPYPSEEQKKQLAKETGLTILQVNNWFINARRRIVQPMIDQNNRAGRSGQMNVCKNRRRNRSEQSPGPSPDSGSDSGANYSPDPSSLAASTAMPYPAEFYMQRTMPYGGFPSFTNPAMPFMNPMMGFQVAPTVDALSQQWVDLSAPHE

No constants are given. Whether binding was seen depends on the method and setting. Binding seen in cells or lysates may run through a third protein. Tags and fused reporters may be left off the sequences shown.
